# Test results from patent publication US6894068B2, “Substituted benzimidazoles as non-nucleoside inhibitors of reverse transcriptase” (The United States of America as represented by the …, priority 1997, dated 2005).
# At least one compound was matched to its structure with a doubt left.
# System: HIV-1 WT virus (NL4-3)
# Format: cell-based
# Conditions: for inhibitory potency against HIV-1 (CIC50), result in words: CEMSS cell culture, WT virus (NL4-3), relative to parent compounds 1 and 2
# Text: Three methods for the measurement of the inhibition of HIV-1 WT RT were used: i) the relative inhibition of nucleotide incorporation into a rC-dG template primer at 1 μmol drug concentration compared with the amount of incorporation with no inhibitor present; ii) the drug concentration required to inhibit 50% of nucleotide incorporation into a rC-dG template primer by HIV-1 WT RT (IC50); and iii) the drug concentration required to reduce cell killing or virus production of HIV-1 WT RT by 50% (EC50).
# Evaluation of these compounds for the inhibition of HIV-1 was determined as the fifty percent cell culture inhibitory concentration (CIC50) in CEMSS cell culture with WT virus (NL4-3).
# In this Example, the antiviral and cellular toxicity of NNRTIs was investigated, using the cytopathic cell killing assay described by Yang (Yang et al., “Characteristics of a Group of Non-nucleoside Reverse Transcriptase Inhibitors with Structural Diversity and Potent Anti-Human Immunodeficiency Virus Activity,” Leukemia 9:S75-S85 [1995]). Briefly, in this method cells (e.g., the CEM-SS cell line, available from the NIAID AIDS Research and Reference Program [ARRRP]) were seeded at a density of 5×10^3 cells/well, into the wells of a 96-well microtiter plate. The cells were then infected with HIV virus (either mutant or WT), at a multiplicity of infection (MOI) previously determined to provide complete cell killing by 6 days of culture post-infection (e.g., MOI of 0.01-0.05). Each of the HIV isolates was pre-titered to induce equivalent levels of infection based on cell killing or virus production, prior to their use in these assays. A range of test compound concentrations was added to the wells in triplicate (e.g., serial half-log dilutions) to evaluate inhibition of HIV infection. Controls for each assay included drug controls (drug colorimetric control wells), drug cytotoxicity control wells (cells with drug), virus control wells (cells with virus), and cell viability controls (cells only). Positive control drugs (e.g. AZT and ddC) were also run in parallel.
# After six days of incubation at 37° C., cell viability was determined spectrophotometrically at 450 nm for each well, using the metabolic reduction of XTT to a soluble colored formazan. (See, Gartner and Popovic, “Virus Isolation and Production, in Aldovini and Walker (eds.), Techniques in HIV Research, Stockton Press, NY, pp. […] [1991]; and Nara and Fischinger, “Quantitative Infectivity Assay for HIV-1 and HIV-2, ” Nature 332:469-470 [1988]).
# Antiviral and toxicity data were reported as the quantity of drug required to inhibit 50% of virus-induced cell killing or virus production (EC50), and the quantity of drug required to reduce enzyme activity by 50% (IC50). […]
SMILES,"inhibitory potency against HIV-1 (CIC50), result in words","EC50 (μM) (Table 11, CEMSS/NL4-3, NRVC = no reduction in viral CPE)"
"CN(C)C(=O)c1cccc2c1nc(-c1c(F)cccc1F)n2Cc1c(F)cccc1F [Compound 63, 1-(2,6-difluorobenzyl)-2-(2,6-difluorophenyl)benzimidazole-4-carboxylic acid dimethylamide]",clearly detrimental to potency,NRVC
"N#Cc1cccc2c1nc(-c1c(F)cccc1F)n2Cc1c(F)cccc1F [Compound 60, 1-(2,6-difluorobenzyl)-2-(2,6-difluorophenyl)-4-cyanobenzimidazole]",modest potency-enhancing effect,
Nc1cccc2c1nc(-c1c(F)cccc1F)n2Cc1c(F)cccc1F [Example 53],modest potency-enhancing effect,
